Test results as given in US20110130447A1, “Production of hop extracts having oestrogenic and antiproliferative bioactivity” (priority 2004, published 2011).
At least one read-out could not be matched to a standard name with certainty.

Assay: Bioavailability and stability of 8-isopentylnaringenin compared with 8-prenylnaringenin

CC(C)CCc1c(O)cc(O)c2c1O[C@H](c1ccc(O)cc1)CC2=O [8-isopentylnaringenin]
bioavailability compared to 8-prenylnaringenin: higher bio availability
